Counter-ions that a name gives are not always drawn. Some of the results follow. Rule as the data show it: active = 0.7 or more and inactive = the rest. Repeats are few or missing, and single values can be far off.

These results are taken from the supplement of paper PMC12872613.

This test relates to MiaPaCa-2 CLSA-25. Description: cell death relative to DMSO vehicle (fraction); higher = more cytotoxic. The note with it: 5 µM; treatment time 48 h; medium cystine 25 µM.
Take `NCCCC(O)(P(=O)(O)O)P(=O)(O)O` [Alendronate sodium hydrate]: the cell death is inactive: 0.119.

As for `NC(=O)c1cccc(-c2cccc(OC(=O)NC3CCCCC3)c2)c1`, the cell death was inactive: 0.0289. Consider `NS(=O)(=O)c1ccc(S(=O)(=O)Nc2cccc3c(Cl)c[nH]c23)cc1` [Indisulam], for which the cell death was inactive: 0.0136. With `O=C(O)c1nn(Cc2ccc(Cl)cc2Cl)c2ccccc12` [Lonidamine], the cell death is inactive: -0.00803. Consider `C=C(C)[C@@H]1CC[C@]2(CO)CC[C@]3(C)[C@H](CC[C@@H]4[C@@]5(C)CC[C@H](O)C(C)(C)[C@@H]5CC[C@]43C)[C@@H]12` [Betulin], for which the cell death was inactive: 0.134. As to `CCCCN1CCCC[C@H]1C(=O)Nc1c(C)cccc1C` [Levobupivacaine HCl], the cell death is inactive: 0.182. In the case of `CC(O)(P(=O)(O)O)P(=O)(O)O` [Etidronate] it was inactive: 0.114; in that of `CCOC(=O)[C@H](CCc1ccccc1)N[C@@H](C)C(=O)N1Cc2ccccc2C[C@H]1C(=O)O` [Quinapril hydrochloride], inactive: 0.155. The value for `C[C@@H](c1ncncc1F)[C@](O)(Cn1cncn1)c1ccc(F)cc1F` [Voriconazole] was inactive: 0.0851. In the case of `CS(=O)(=O)n1cc2c(n1)CN([C@H]1CO[C@H](c3cc(F)ccc3F)[C@@H](N)C1)C2` [Omarigliptin] it was inactive: 0.476; in that of `Cc1ccc([C@@H]2O[C@H](CO)[C@@H](O)[C@H](O)[C@H]2O)cc1Cc1ccc(-c2ccc(F)cc2)s1` [Canagliflozin], inactive: 0.54; in that of `CCOC(=O)C(C)(C)Oc1ccc(Cl)cc1` [Clofibrate], inactive: -0.038. As to `CCNC(=O)c1noc(-c2cc(C(C)C)c(O)cc2O)c1-c1ccc(CN2CCOCC2)cc1` [Luminespib], the cell death was inactive: 0.218. In the case of `COC(=O)Nc1nc2cc([S+]([O-])c3ccccc3)ccc2[nH]1` (centres undefined) [Oxfendazole] it was inactive: 0.113. For `CN1CCC(=C2c3ccccc3CC(=O)c3sccc32)CC1` [Ketotifen fumarate], the cell death was inactive: 0.148.

As for `Fc1ccc(-c2c3cccc(C(F)(F)F)c3nn2Cc2ccc(F)cc2Cl)cc1`, the cell death was inactive: 0.482. The value for `O=C(/C=C/c1ccc(O)c(O)c1)O[C@@H]1C[C@](O)(C(=O)O)C[C@@H](O)[C@H]1O` [Chlorogenic Acid] was inactive: 0.0444; that for `COc1ccc(-c2nc(-c3cc(C(F)(F)F)cc(C(F)(F)F)c3)n(Cc3ccc(C(N)=O)cc3)c2-c2ccc(OC)cc2)cc1` [Apoptozole] was inactive: 0.335; that for `CC(C)=CCC/C(C)=C/CC/C(C)=C/CC/C(C)=C/CC1=C(C)C(=O)c2ccccc2C1=O` [Menatetrenone] was inactive: 0.114. Regarding `CC(C)OC(=O)C(C(=O)OC(C)C)=C1SC=CS1` [Malotilate], the cell death is inactive: 0.211. For the molecule `CCOC(=O)n1ccn(C)c1=S` [Carbimazole], the cell death was inactive: 0.46. Regarding `C[C@@]1(C(=O)O)CC[C@]2(C)CC[C@]3(C)C4=CC(=O)c5c(cc(O)c(O)c5C=O)[C@]4(C)CC[C@@]3(C)[C@@H]2C1` [Demethylzeylasteral], the cell death was inactive: 0.608. As for `CCCCCCCCCCCCCCOc1ccc(C(=O)O)o1`, the cell death was active: 0.84.

In the case of `OCC(CO)N[C@H]1C[C@](O)(CO)[C@@H](O)[C@H](O)[C@H]1O` [Voglibose], the cell death is inactive: 0.557. In the case of `C[C@@H]1CC(=O)NN=C1c1ccc(NN=C(C#N)C#N)cc1` [Levosimendan], the cell death was inactive: 0.378. Turning to `COC[C@H]1C[C@@H](c2nc(-c3ccc4c(c3)COc3cc5c(ccc6nc([C@@H]7CC[C@H](C)N7C(=O)[C@@H](NC(=O)OC)C(C)C)[nH]c65)cc3-4)c[nH]2)N(C(=O)[C@H](NC(=O)OC)c2ccccc2)C1` [Velpatasvir], the cell death is inactive: 0.0372. With `COC(=O)C1=CO[C@@H](O[C@@H]2O[C@H](CO)[C@@H](O)[C@H](O)[C@H]2O)[C@@H]2[C@@H](C)[C@@H](O)C[C@H]12` [Loganin], the cell death was inactive: 0.217. In the case of `N=C(N)NC(=N)NCCc1ccccc1` [Phenformin hydrochloride] it was inactive: 0.316; in that of `COc1ccc(CC2NCCc3cc(OC)c(OC)cc32)cc1OC` (centres undefined) [Tetrahydropapaverine hydrochloride], inactive: 0.0166; in that of `NS(=O)(=O)c1ccc(NC(=O)Nc2ccc(F)cc2)cc1`, inactive: 0.112. Turning to `C[C@]12C=CC(=O)C=C1CC[C@@H]1[C@@H]2C(=O)C[C@@]2(C)[C@H]1CC[C@]2(O)C(=O)CO` [Prednisone], the cell death was inactive: 0.367. The value for `CC1(C)O[C@@H]2C[C@H]3[C@@H]4CCC5=CC(=O)C=C[C@]5(C)[C@H]4[C@@H](O)C[C@]3(C)[C@]2(C(=O)CO)O1` [Desonide] was inactive: 0.109; that for `CCCCC(=O)O[C@]1(C(=O)CO)CC[C@H]2[C@@H]3CCC4=CC(=O)CC[C@]4(C)[C@H]3[C@@H](O)C[C@@]21C` [Hydrocortisone Valerate] was inactive: 0.167; that for `NCCCCN` [1,4-Diaminobutane] was inactive: 0.0551. In the case of `CCN(CC)C(=S)SSC(=S)N(CC)CC` [Disulfiram] it was active: 0.805. In the case of `CCC(=O)O[C@]1(C(=O)CCl)[C@@H](C)C[C@H]2[C@@H]3C[C@H](F)C4=CC(=O)C=C[C@]4(C)[C@@]3(F)[C@@H](O)C[C@@]21C` [Halobetasol Propionate] it was inactive: 0.444; in that of `CCN(CC)CCOC(=O)C(c1ccccc1)c1ccccc1` [Adiphenine hydrochloride], inactive: 0.00642.

As to `CCCCCCc1ccc(O)cc1O` [Hexylresorcinol], the cell death is inactive: 0.558. As to `NNC(=O)c1ccncc1` [Isoniazid], the cell death was inactive: 0.0722.
